Plain letter strings leave the end groups untold.
Assay: general procedure: Fmoc solid-phase peptide synthesis; 2-triphenylmethylchloromethane resin (preferred), substitution 0.1-1.0 mmol/g
Conditions: whole synthesis, acetate

SYSMEHFRWGKPVGKKRRPVKVYPDGAEDESAEAFPLEF (deamidated at N25; N-25 deamidated human ACTH or analogue)
final HPLC purity (HPLC, scale of the general procedure at least about 250 g/batch): 99.58% | isolated mass: 255 g | isolated yield (molar yield, scale of the general procedure at least about 250 g/batch): 63%

From patent US12433936B2 (Nanjing Hanxin Pharmaceutical Technology Co., Ltd., priority 2021, dated 2025)
